Experimental data: PubChem BioAssay AID1224830 (NIAID, 2016)
Purpose: 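Genes whose knock-down alters the TNF-alpha reporter response to LPS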 (primary screen). Cells: human THP-1 monocytic leukaemia cells, TNF dual-luciferase reporter clone, PMA-differentiated to macrophage-like cells. Knock-down reagent: siRNA pool against human genes, 50 nM. Time to read-out: LPS for 4 h, given about 3 days after siRNA transfection. Treatment: bacterial LPS (TLR4 ligand), 10 ng/ml. Detection: 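Ratio of firefly to renilla light, scaled to the plate median and expressed as a robust z-score per replicate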. Reading the numbers: TNF reporter robust z-score: higher = stronger TNF reporter response to LPS. Rule for the call: 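Each well counts as active if its z-score is over 2.8 or under -1.5; controls are left without a call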.
Here is an unselected part of about 18,000 deposited reagents. Of all reagents, about 2,900 (16%) were called active. 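Calls are made per well; low scores hint the gene aids the LPS response, high scores that it dampens it.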 Repeated entries: four replicate wells of each siRNA pool.

PF4V1 (platelet factor 4 variant 1) [SID315450522]: TNF reporter robust z-score = 0.55; Call = inactive
PF4V1 (platelet factor 4 variant 1) [SID315450522]: TNF reporter robust z-score = 1.45; Call = inactive
PF4V1 (platelet factor 4 variant 1) [SID315450522]: TNF reporter robust z-score = 1.5; Call = inactive
PF4V1 (platelet factor 4 variant 1) [SID315450522]: TNF reporter robust z-score = 1.25; Call = inactive
MORN3 (MORN repeat containing 3) [SID315463668]: TNF reporter robust z-score = 1.49; Call = inactive
MORN3 (MORN repeat containing 3) [SID315463668]: TNF reporter robust z-score = 1.45; Call = inactive
MORN3 (MORN repeat containing 3) [SID315463668]: TNF reporter robust z-score = 0.79; Call = inactive
MORN3 (MORN repeat containing 3) [SID315463668]: TNF reporter robust z-score = -0.02; Call = inactive
FOLR2 (folate receptor beta) [SID315448747]: TNF reporter robust z-score = -0.42; Call = inactive
FOLR2 (folate receptor beta) [SID315448747]: TNF reporter robust z-score = 0.9; Call = inactive
FOLR2 (folate receptor beta) [SID315448747]: TNF reporter robust z-score = 0.5; Call = inactive
FOLR2 (folate receptor beta) [SID315448747]: TNF reporter robust z-score = 0.53; Call = inactive
MYH14 (myosin heavy chain 14) [SID315459457]: TNF reporter robust z-score = -0.46; Call = inactive
MYH14 (myosin heavy chain 14) [SID315459457]: TNF reporter robust z-score = -0.86; Call = inactive
MYH14 (myosin heavy chain 14) [SID315459457]: TNF reporter robust z-score = -0.38; Call = inactive
KRT15 (keratin 15) [SID315449698]: TNF reporter robust z-score = -0.54; Call = inactive
KRT15 (keratin 15) [SID315449698]: TNF reporter robust z-score = -0.56; Call = inactive
KRT15 (keratin 15) [SID315449698]: TNF reporter robust z-score = -1.59; Call = active
KRT15 (keratin 15) [SID315449698]: TNF reporter robust z-score = -0.36; Call = inactive
ZNF829 (zinc finger protein 829) [SID315464340]: TNF reporter robust z-score = 1.45; Call = inactive
ZNF829 (zinc finger protein 829) [SID315464340]: TNF reporter robust z-score = 0.22; Call = inactive
ZNF829 (zinc finger protein 829) [SID315464340]: TNF reporter robust z-score = 0.16; Call = inactive
ZNF829 (zinc finger protein 829) [SID315464340]: TNF reporter robust z-score = 1.84; Call = inactive
COL25A1 (collagen type XXV alpha 1 chain) [SID315460412]: TNF reporter robust z-score = 0.9; Call = inactive
COL25A1 (collagen type XXV alpha 1 chain) [SID315460412]: TNF reporter robust z-score = 1.39; Call = inactive
COL25A1 (collagen type XXV alpha 1 chain) [SID315460412]: TNF reporter robust z-score = -0.67; Call = inactive
COL25A1 (collagen type XXV alpha 1 chain) [SID315460412]: TNF reporter robust z-score = -0.37; Call = inactive
MBNL2 (muscleblind like splicing regulator 2) [SID315453860]: TNF reporter robust z-score = -0.47; Call = inactive
MBNL2 (muscleblind like splicing regulator 2) [SID315453860]: TNF reporter robust z-score = -0.34; Call = inactive
MBNL2 (muscleblind like splicing regulator 2) [SID315453860]: TNF reporter robust z-score = -1.14; Call = inactive
MBNL2 (muscleblind like splicing regulator 2) [SID315453860]: TNF reporter robust z-score = -1.37; Call = inactive
EIF3M (eukaryotic translation initiation factor 3 subunit M) [SID315454125]: TNF reporter robust z-score = 0.59; Call = inactive
EIF3M (eukaryotic translation initiation factor 3 subunit M) [SID315454125]: TNF reporter robust z-score = 0.24; Call = inactive
EIF3M (eukaryotic translation initiation factor 3 subunit M) [SID315454125]: TNF reporter robust z-score = -0.5; Call = inactive
EIF3M (eukaryotic translation initiation factor 3 subunit M) [SID315454125]: TNF reporter robust z-score = -0.28; Call = inactive
BAIAP3 (BAI1 associated protein 3) [SID315452941]: TNF reporter robust z-score = -1.42; Call = inactive
BAIAP3 (BAI1 associated protein 3) [SID315452941]: TNF reporter robust z-score = -1.43; Call = inactive
BAIAP3 (BAI1 associated protein 3) [SID315452941]: TNF reporter robust z-score = -1.05; Call = inactive
BAIAP3 (BAI1 associated protein 3) [SID315452941]: TNF reporter robust z-score = -1.16; Call = inactive
DHRS7 (dehydrogenase/reductase 7) [SID315456818]: TNF reporter robust z-score = -1.66; Call = active
DHRS7 (dehydrogenase/reductase 7) [SID315456818]: TNF reporter robust z-score = -1.16; Call = inactive
DHRS7 (dehydrogenase/reductase 7) [SID315456818]: TNF reporter robust z-score = -1.17; Call = inactive
DHRS7 (dehydrogenase/reductase 7) [SID315456818]: TNF reporter robust z-score = -1.06; Call = inactive
ADA (adenosine deaminase) [SID315447179]: TNF reporter robust z-score = -0.66; Call = inactive
ADA (adenosine deaminase) [SID315447179]: TNF reporter robust z-score = -0.68; Call = inactive
ADA (adenosine deaminase) [SID315447179]: TNF reporter robust z-score = -0.3; Call = inactive
DMRTA1 (DMRT like family A1) [SID315458787]: TNF reporter robust z-score = -0.8; Call = inactive
DMRTA1 (DMRT like family A1) [SID315458787]: TNF reporter robust z-score = -0.41; Call = inactive
DMRTA1 (DMRT like family A1) [SID315458787]: TNF reporter robust z-score = -0.26; Call = inactive
DMRTA1 (DMRT like family A1) [SID315458787]: TNF reporter robust z-score = 0.39; Call = inactive

Sorted by “TNF reporter robust z-score” (ascending): some entries from above.
BAIAP3 (BAI1 associated protein 3) [SID315452941]: TNF reporter robust z-score = -1.43; Call = inactive
BAIAP3 (BAI1 associated protein 3) [SID315452941]: TNF reporter robust z-score = -1.42; Call = inactive
BAIAP3 (BAI1 associated protein 3) [SID315452941]: TNF reporter robust z-score = -1.05; Call = inactive
EIF3M (eukaryotic translation initiation factor 3 subunit M) [SID315454125]: TNF reporter robust z-score = -0.5; Call = inactive
EIF3M (eukaryotic translation initiation factor 3 subunit M) [SID315454125]: TNF reporter robust z-score = -0.28; Call = inactive
EIF3M (eukaryotic translation initiation factor 3 subunit M) [SID315454125]: TNF reporter robust z-score = 0.24; Call = inactive
EIF3M (eukaryotic translation initiation factor 3 subunit M) [SID315454125]: TNF reporter robust z-score = 0.59; Call = inactive
